The values that follow come from PubChem BioAssay AID662 (National Center for Advancing Translational Sciences (NCATS), 2007).

Some of the results follow. These are further read-outs of the screen, such as a control signal, another cell line or another target. No call is given for them. Most of these compounds were active or inconclusive in the main read-out, so they are no random draw. The note in brackets gives the kind of curve behind each potency; many fits are weak.

In general, AC50 refers to the midpoint of the concentration-response curve, whichever way the signal moves.

This assay in a line: Cell signaling CRE-BLA (Fsk stim). As to conditions: CHO CRE-bla reporter (cAMP response element driving beta-lactamase), forskolin EC10, beta-lactamase ratio; measured here: 460 nm blue channel. The gist of the method:
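AC50 values, positive or negative, reflect shifts in EC10 NKH 477-induced CRE-bla reporter activity in CHO cells. Incubation lasted 3 h at 37 °C before CCF4 substrate (2 h, room temperature) and ratiometric 460/530 nm reading.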
Regarding `CCOC(=O)C(C)Oc1cccc2c(=O)n(CC(=O)NCc3ccco3)ccc12` (centres undefined), the AC50 was 12.6 µM [rising, partial curve].
As for `c1ccc(Cn2ccnc2SCc2nnc(-c3ccccc3)o2)cc1`, the AC50 was 15.8 µM [rising, single point].
For `Cc1ccc(-c2noc(CCC(=O)NC3CCN(Cc4ccccc4)CC3)n2)cc1`, the AC50 is 25.1 µM [falling, single point].
As for `Oc1c(CN2CCOCC2)cc(-c2ccccc2)cc1CN1CCOCC1`, the AC50 was 0.1 µM [falling, full curve, poor fit].
Regarding `CCCCCOC(=O)C1=C(C)N(C)C(=O)NC1c1cc(Br)c(O)c(OC)c1` (centres undefined), the AC50 was 10 µM [rising, partial curve].
For the compound `N#CCCN1CCN(C(=S)c2ccc(-c3ccc(Cl)c(Cl)c3)o2)CC1`, the AC50 was 2.51 µM [rising, partial curve].
As to `CC(=O)Nc1ccc(OCC(O)CN2CCN(c3cccc(Cl)c3)CC2)cc1` (centres undefined), the AC50 was 0.126 µM [rising, full curve, poor fit].
Regarding `Cc1ccc(-c2cn3cccnc3n2)cc1NC(=O)c1c(-c2ccccc2Cl)noc1C`, the AC50 is 1.58 µM [falling, partial curve].
Take `COc1ccc(-c2cc(C(F)(F)F)nc(SCC(=O)NCc3ccco3)n2)cc1OC`: the AC50 is 12.6 µM [rising, partial curve].
Under `CN1CCN(CCCNC(=O)c2cc3c(-c4ccc(Cl)cc4)nn(C)c3s2)CC1` stands 7.94 µM [rising, partial curve]; under `O=C(COc1ccccc1)N1CCc2ccccc2C1`, 25.1 µM [falling, single point]; under `COc1ccccc1N1CCN(Cc2ccco2)CC1`, 3.16 µM [falling, full curve].
Turning to `COCC(=O)Nc1ccc(-c2cn3cccnc3n2)cc1`, the AC50 was 2.51 µM [falling, partial curve].
As for `COc1ccccc1CNc1nc(-c2cccc(C#N)c2)nc2ccccc12`, the half-maximal activity concentration (AC50) is 3.16 µM [rising, partial curve].
Take `Cc1ccc2[nH]c(=O)c(CN(CCCO)S(=O)(=O)c3cccc4nsnc34)cc2c1`: the AC50 was 25.1 µM [rising, single point].
With `Cc1cc(N2CCCCC2)n2ncc(-c3ccc(Cl)cc3)c2n1`, the AC50 is 12.6 µM [rising, partial curve].
For the compound `CCOC(=O)c1cc(-c2cc3ccccc3o2)n[nH]1`, the AC50 was 5.01 µM [falling, single point].
On to `COC(=O)c1[nH]c2cc(OC)c(OC)cc2c1NC(=O)c1cccc(OC)c1`, for which the AC50 is 12.6 µM [rising, partial curve].
`COC(=O)[C@@]1(Cc2ccc(F)cc2)[C@H]2c3cc(C(=O)N(C)C)n(CCc4ccc(O)c(O)c4)c3C[C@H]2CN1C(=O)c1ccccc1`: the AC50 was 10 µM [falling, single point].
